The values that follow come from US6537553B1, “Leukosialin: Ig fusion proteins” (La Jolla Cancer Research Foundation, priority 1993, dated 2003).

The assay has as its target T1, mouse E-selectin on IL-1β-activated mouse tEnd.1 endothelioma cells (mouse) (UniProt Q00690).
T1 sequence (looked up): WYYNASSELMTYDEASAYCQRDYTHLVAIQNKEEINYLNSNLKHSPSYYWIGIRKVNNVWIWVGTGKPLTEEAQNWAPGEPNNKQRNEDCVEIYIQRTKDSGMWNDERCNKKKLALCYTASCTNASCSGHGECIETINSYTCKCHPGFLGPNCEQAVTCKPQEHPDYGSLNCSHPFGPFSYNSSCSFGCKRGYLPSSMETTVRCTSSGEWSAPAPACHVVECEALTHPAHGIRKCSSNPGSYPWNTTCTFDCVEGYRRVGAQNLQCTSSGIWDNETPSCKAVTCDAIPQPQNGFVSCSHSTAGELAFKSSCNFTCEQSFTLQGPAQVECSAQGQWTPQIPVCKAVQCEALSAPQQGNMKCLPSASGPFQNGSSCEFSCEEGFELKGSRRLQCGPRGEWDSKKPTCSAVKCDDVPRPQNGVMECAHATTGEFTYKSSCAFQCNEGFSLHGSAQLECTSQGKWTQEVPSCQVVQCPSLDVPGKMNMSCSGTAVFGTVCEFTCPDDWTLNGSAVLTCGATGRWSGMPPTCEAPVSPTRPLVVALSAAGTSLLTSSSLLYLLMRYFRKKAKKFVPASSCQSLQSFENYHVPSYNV
Put plainly: inferred from inhibition of cell adhesion to activated tEnd.1 cells.

These are yes or no findings as the source states them, for the method shown. Some entries that bind do so weakly or less than the wild type.

B1: soluble lamp-1 containing the sialyl Le^x moiety (CHO cells co-transfected with pSRαs-lamp-1 and the Fuc-TIII vector) (protein, UniProt P11279 29-382, looked up)
chain: AMFMVKNGNGTACIMANFSAAFSVNYDTKSGPKNMTFDLPSDATVVLNRSSCGKENTSDPSLVIAFGRGHTLTLNFTRNATRYSVQLMSFVYNLSDTHLFPNASSKEIKTVESITDIRADIDKKYRCVSGTQVHMNNVTVTLHDATIQAYLSNSSFSRGETRCEQDRPSPTTAPPAPPSPSPSPVPKSPSVDKYNVSGTNGTCLLASMGLQLNLTYERKDNTTVTRLLNINPNKTSASGSCGAHLVTLELHSEGTTVLLFQFGMNASSSRFFLQGIQLNTILPDARDPAFKAANGSLRALQATVGNSYKCNAEEHVRVTKAFSVNIFKVWVQAFKVEGGQFGSVEECLLDENSM
modifications: glycans carrying the sialyl Le^x determinant; sites not stated
For B1, the binding result is reported as “binds”.
